Laboratory results published in patent US20240307334A1 (Lieber Institute, Inc., priority 2023, published 2024).
Where a name gives a salt, the structure may show the parent alone.

What was measured:
[1] = test system: Tcf4+/tr mouse model of PTHS; test: In vivo immunohistochemical (IHC) quantification of OPCs and OLs after two-week intraperitoneal dosing; conditions: Tcf4+/tr mice dosed with clemastine up to p42, samples collected at p90
Text: The Tcf4^+/tr mouse model of PTHS is heterozygous for an allele encoding deletion of the DNA-binding domain of TCF4 (B6; 129-TCF4tmlZhu/J, stock number 013598, Jackson Laboratory). This mouse colony was backcrossed for at least six generations, maintained by The Lieber Institute for Brain Developments Animal Facility on a 12-h light/dark cycle and fed ad libitum. Tcf4^+/tr mouse samples were matched with samples from Tcf4^+/+ littermates, and sex was randomly selected in each genotype and age group. […]
Cells were rinsed 1× with PBS and then fixed with 4% paraformaldehyde (PFA) for 5 minutes, following fixation cells were rinsed 3× with PBS. […] Imaging and quantification were performed blind to genotypes and conditions/treatments.
Next, we assessed the effectiveness of clemastine in vivo by dosing Tcf4^+/tr mice and Tcf4^+/+ littermates intraperitoneally with either clemastine (10 mg/kg) or vehicle for two weeks followed by immunohistochemical (IHC) quantification (FIG. 2A). […]
Next, we assessed the effectiveness of Sob-AM2 in vivo by dosing Tcf4^+/tr mice and Tcf4^+/+ littermates intraperitoneally with either Sob-AM2 (1 mg/kg) or vehicle for two weeks followed by immunohistochemical (IHC) quantification (FIG. 7D).

[2] = test system: Tcf4+/tr mouse model of PTHS; conditions: corpus callosum slices, two-week clemastine treatment, compared to vehicle-treated Tcf4+/tr littermates
Procedure: 5% DMA (dimethylacetamide, Sigma 271012) was added up to the total volume needed. […] The mixture was shaken vigorously (vortex) and was ready for administration for intraperitoneal (1P) dosing at 10 mL/kg. The final pH was approximately 5. […] Initial dosing was performed at P28 up until P42 when animals were then used for subsequent experiments.

CN1CCC[C@@H]1CCO[C@](C)(c1ccccc1)c1ccc(Cl)cc1 [clemastine, clemastine fumarate]
mature OLs at p90 after halting administration at p42 [1]: mature OLs are maintained after halting dosage
N1/N2 ratio (CAPs down myelinated vs unmyelinated axons) [2]: significantly increasing the N1/N2 ratio
